Assay results taken from article PMC11616693.

Amino acid sequences for entries named in this document (tags omitted). A change or cut given only in a name is not applied to a line headed by its entry.
UniProt P06756: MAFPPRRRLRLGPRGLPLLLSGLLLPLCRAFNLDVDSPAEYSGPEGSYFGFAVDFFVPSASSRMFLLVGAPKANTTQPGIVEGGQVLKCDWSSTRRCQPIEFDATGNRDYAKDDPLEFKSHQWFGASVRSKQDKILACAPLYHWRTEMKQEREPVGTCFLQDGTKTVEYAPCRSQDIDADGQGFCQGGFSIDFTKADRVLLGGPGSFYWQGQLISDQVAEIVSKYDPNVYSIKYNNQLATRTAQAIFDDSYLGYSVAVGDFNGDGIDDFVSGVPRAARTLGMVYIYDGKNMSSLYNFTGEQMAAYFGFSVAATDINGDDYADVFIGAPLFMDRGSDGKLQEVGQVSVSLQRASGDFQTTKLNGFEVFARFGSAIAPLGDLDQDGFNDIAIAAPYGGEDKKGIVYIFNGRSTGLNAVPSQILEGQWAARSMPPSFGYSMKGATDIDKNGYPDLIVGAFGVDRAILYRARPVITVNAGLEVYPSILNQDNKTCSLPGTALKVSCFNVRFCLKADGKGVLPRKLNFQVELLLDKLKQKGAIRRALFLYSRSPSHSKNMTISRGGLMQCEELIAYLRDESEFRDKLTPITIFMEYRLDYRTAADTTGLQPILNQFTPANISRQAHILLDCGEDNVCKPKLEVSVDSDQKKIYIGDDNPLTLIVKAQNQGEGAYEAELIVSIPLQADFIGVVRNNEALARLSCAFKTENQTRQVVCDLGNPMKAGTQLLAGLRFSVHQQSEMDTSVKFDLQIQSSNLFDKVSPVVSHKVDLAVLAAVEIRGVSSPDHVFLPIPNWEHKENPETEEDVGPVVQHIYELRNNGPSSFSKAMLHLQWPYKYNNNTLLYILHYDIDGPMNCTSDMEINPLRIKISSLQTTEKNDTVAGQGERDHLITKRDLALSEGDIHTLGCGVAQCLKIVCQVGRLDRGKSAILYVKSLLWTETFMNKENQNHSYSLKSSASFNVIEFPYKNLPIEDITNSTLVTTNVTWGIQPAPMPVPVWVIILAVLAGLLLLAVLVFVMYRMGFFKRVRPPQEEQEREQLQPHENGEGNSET
UniProt P20340: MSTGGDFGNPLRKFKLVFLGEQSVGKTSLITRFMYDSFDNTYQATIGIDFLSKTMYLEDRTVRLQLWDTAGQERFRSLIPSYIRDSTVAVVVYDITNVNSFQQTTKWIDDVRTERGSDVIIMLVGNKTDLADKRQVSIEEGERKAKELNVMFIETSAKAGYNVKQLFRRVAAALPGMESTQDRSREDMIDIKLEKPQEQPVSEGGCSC
UniProt P51149: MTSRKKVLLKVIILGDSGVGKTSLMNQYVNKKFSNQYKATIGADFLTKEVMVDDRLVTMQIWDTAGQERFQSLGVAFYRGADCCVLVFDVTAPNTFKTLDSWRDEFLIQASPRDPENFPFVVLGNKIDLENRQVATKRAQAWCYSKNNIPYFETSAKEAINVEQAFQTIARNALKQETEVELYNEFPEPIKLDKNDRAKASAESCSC
UniProt P62491: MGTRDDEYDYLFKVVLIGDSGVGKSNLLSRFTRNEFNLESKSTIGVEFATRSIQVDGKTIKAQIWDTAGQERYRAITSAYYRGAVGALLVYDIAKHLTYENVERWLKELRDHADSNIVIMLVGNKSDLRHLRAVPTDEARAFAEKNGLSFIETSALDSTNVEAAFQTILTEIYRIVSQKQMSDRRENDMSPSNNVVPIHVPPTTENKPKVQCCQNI

The substances below were run against αVβ6 integrin (human (endogenous in BT474 and HER2-18)) (UniProt P06756) (assay: affinity purification with mass spectrometry; integrin-associated adhesion complexes (IACs) isolated from HER2-18 or BT474 cells plated 2.5 h on LAP (compared with Coll-I or FN), cross-linked with 3 mM DTBP, cell bodies removed, label-free MS; also BT474 trastuzumab-sensitive cells with or without 96 h trastuzumab (10 μg/ml) on LAP).

binding, binds:
RAB6A (from UniProt P20340 1-208), RAB7A (from UniProt P51149 1-207), RAB11A (from UniProt P62491 1-216)

No constants are given. Whether binding was seen depends on the method and setting. In cells and extracts the contact can be indirect. Here binding means that the protein was enriched with, or labelled near, the bait; the list need not be complete.
